Assay results from the supplement of paper PMC6411743.
± gives the standard deviation of the averaged measurements. The entries are a selection whose mix differs from that of the whole data set.

Chains of the proteins cited; added tags and fusions are not shown. Lines headed by an entry give the natural chain unless they say otherwise; changes in a name come on top.
UniProt Q13425: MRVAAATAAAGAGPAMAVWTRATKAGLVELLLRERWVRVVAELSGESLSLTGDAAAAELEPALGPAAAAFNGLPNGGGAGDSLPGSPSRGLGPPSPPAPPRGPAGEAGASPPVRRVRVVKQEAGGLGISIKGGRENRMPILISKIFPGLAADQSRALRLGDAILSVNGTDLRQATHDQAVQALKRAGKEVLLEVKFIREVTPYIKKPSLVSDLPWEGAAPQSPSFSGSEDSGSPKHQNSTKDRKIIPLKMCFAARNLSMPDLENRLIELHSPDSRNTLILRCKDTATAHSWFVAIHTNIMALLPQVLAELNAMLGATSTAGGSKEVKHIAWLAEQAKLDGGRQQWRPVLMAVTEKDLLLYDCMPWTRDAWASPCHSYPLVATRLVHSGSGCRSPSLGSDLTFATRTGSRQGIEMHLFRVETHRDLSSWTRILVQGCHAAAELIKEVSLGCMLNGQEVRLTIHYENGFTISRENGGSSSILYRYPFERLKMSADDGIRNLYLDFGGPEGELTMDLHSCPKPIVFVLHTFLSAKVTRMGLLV
UniProt Q06136: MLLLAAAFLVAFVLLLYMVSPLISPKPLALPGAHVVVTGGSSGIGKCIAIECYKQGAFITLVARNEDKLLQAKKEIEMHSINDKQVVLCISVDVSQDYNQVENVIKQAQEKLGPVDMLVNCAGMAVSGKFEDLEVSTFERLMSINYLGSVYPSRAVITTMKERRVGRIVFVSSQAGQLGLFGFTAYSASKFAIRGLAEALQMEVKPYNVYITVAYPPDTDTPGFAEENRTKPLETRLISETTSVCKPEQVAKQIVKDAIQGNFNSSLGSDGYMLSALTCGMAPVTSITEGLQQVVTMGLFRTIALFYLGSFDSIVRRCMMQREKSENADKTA
UniProt Q13112, whole entry, looked up: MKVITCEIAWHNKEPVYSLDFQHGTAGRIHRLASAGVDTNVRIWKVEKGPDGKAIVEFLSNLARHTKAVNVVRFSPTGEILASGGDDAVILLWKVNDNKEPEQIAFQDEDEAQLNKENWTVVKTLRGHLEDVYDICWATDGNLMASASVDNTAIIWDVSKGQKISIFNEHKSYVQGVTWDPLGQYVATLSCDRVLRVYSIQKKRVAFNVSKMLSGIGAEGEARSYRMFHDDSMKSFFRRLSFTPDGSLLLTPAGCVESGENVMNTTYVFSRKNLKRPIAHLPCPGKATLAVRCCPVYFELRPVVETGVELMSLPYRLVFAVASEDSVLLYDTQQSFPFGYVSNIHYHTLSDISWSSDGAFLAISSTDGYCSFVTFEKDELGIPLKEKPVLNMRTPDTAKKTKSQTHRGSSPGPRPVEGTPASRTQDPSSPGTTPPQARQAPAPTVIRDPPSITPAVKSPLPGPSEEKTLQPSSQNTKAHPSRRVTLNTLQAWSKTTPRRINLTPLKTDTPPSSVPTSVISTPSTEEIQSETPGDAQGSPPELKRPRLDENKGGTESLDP
UniProt Q01831: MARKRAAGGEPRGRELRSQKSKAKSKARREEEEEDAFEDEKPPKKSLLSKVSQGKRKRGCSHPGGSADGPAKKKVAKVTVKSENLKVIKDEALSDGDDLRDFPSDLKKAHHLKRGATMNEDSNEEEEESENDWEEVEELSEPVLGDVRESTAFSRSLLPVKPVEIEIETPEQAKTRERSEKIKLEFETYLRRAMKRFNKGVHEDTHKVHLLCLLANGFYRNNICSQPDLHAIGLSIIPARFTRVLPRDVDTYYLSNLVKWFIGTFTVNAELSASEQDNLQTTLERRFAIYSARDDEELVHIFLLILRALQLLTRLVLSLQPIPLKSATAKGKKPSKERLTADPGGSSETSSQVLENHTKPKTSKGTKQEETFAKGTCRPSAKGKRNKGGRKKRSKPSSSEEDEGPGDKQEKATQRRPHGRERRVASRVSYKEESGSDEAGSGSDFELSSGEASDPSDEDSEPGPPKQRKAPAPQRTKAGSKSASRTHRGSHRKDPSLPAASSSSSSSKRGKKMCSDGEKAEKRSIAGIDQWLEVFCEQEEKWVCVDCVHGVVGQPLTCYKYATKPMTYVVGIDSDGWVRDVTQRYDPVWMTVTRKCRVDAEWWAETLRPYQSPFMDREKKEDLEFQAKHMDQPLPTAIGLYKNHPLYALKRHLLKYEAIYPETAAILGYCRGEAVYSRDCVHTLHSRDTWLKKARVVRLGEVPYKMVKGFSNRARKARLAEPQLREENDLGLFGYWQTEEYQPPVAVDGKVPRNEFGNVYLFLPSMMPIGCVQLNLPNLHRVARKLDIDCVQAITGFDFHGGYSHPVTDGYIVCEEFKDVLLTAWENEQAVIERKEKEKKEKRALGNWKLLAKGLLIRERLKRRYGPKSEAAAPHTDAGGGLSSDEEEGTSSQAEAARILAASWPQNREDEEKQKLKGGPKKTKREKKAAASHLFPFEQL
UniProt Q13287: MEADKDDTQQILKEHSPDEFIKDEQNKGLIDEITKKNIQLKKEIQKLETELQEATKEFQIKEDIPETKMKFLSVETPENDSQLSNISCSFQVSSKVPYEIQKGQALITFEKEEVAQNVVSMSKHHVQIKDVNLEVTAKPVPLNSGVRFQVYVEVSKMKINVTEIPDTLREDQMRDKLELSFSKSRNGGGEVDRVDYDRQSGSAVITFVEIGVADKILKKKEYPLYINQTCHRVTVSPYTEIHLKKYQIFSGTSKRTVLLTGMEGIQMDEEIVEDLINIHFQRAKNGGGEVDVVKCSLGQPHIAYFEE
UniProt Q13356: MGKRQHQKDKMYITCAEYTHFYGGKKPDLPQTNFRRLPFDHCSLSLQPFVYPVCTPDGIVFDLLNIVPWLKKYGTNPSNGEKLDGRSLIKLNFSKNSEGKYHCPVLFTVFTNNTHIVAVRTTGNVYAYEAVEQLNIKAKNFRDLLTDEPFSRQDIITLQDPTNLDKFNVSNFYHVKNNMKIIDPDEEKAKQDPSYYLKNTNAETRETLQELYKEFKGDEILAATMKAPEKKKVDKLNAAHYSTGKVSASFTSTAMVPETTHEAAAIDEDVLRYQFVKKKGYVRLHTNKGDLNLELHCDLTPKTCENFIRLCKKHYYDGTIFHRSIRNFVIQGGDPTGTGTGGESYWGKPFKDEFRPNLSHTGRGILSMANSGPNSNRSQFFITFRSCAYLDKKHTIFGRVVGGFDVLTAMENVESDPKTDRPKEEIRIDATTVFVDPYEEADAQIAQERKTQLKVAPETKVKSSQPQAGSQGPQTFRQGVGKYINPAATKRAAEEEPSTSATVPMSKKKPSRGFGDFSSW
UniProt Q14145, whole entry: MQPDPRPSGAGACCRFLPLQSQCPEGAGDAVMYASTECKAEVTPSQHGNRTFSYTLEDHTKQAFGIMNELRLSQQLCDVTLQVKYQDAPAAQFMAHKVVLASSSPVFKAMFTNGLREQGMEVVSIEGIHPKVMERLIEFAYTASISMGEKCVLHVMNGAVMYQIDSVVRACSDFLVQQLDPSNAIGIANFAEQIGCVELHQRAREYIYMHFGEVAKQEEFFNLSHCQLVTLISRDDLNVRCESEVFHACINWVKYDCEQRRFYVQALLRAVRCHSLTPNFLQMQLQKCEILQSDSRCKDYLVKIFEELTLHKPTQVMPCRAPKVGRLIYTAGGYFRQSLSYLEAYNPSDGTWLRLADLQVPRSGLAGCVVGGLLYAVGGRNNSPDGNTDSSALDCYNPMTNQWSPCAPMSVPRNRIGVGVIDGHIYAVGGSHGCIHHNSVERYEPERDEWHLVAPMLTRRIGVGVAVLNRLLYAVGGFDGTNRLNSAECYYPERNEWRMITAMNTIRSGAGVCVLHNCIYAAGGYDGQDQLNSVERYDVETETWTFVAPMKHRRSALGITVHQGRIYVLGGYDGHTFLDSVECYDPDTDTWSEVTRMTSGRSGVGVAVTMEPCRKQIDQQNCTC
UniProt Q04721: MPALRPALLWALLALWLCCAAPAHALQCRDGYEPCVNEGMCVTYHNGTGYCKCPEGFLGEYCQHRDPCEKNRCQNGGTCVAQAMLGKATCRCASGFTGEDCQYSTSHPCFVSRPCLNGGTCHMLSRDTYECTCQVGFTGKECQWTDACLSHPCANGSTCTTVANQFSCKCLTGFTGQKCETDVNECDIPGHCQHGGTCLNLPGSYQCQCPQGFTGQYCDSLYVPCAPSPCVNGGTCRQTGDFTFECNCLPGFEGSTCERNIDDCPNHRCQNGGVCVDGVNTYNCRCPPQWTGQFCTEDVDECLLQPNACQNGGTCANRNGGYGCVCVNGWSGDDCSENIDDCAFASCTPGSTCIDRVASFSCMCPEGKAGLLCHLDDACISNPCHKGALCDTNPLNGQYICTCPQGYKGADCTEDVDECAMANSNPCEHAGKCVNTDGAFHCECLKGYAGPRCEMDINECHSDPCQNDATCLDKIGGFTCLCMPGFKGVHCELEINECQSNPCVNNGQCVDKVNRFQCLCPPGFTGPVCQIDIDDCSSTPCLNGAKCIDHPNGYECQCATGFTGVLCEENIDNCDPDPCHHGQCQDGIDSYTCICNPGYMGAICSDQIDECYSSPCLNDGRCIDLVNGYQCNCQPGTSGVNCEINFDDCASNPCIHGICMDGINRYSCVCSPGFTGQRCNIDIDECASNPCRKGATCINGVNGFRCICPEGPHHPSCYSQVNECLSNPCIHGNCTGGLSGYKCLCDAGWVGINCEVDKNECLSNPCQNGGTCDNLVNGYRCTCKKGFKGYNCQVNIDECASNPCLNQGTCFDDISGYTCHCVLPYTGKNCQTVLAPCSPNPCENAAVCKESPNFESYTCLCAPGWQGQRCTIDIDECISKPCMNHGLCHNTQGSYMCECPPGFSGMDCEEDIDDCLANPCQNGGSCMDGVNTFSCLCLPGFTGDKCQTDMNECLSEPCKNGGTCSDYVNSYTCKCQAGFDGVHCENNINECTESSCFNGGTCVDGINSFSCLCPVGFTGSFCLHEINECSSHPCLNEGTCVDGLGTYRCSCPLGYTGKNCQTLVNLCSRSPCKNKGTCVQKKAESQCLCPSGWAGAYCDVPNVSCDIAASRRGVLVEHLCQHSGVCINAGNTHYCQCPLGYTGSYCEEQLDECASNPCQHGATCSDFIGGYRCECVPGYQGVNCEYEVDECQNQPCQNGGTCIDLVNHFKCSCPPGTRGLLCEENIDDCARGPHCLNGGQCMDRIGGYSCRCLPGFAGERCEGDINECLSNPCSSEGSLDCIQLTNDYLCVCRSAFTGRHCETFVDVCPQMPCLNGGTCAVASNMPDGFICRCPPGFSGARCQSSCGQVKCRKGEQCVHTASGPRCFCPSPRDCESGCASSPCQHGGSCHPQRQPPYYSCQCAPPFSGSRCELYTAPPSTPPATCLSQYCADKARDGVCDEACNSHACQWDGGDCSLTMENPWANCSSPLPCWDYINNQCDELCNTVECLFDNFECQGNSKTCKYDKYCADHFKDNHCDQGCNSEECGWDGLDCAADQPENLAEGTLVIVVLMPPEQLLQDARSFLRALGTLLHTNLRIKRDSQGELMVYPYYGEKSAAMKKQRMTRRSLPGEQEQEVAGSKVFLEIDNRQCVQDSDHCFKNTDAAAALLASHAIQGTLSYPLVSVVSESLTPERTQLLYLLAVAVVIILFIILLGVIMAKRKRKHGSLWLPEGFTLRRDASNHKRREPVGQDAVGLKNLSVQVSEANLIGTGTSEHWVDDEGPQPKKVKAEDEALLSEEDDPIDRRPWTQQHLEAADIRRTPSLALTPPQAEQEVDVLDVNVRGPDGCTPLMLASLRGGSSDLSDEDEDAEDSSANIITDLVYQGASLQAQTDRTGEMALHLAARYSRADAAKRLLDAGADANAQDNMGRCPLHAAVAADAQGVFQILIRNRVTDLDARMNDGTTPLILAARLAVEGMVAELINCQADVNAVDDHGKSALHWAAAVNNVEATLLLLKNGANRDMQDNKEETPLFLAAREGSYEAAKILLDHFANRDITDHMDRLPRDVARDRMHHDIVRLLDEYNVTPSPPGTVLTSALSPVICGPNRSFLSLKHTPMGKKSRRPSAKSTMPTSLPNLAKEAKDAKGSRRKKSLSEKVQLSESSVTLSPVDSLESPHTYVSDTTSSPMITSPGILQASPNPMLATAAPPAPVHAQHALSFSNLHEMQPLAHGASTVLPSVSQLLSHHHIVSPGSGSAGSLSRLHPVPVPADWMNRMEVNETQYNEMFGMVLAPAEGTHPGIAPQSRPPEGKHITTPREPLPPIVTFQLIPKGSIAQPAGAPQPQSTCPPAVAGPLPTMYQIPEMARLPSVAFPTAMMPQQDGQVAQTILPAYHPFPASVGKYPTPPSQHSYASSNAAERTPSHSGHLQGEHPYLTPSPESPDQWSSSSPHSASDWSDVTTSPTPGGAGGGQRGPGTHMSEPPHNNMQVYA

Compound: Nc1ncnc2c1ncn2[C@@H]1O[C@H](COP(=O)(O)OP(=O)(O)OP(=O)(O)O)[C@@H](O)[C@H]1O [adenosine triphosphate]
Experiment: NP40-soluble protein abundance relative to vehicle (solubility fold change) (ratio); higher = more soluble protein in presence of ATP
How it was run: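 Jurkat crude lysate (Dounce-homogenised) was treated with eight concentrations from 0.1 to 10 mM for 10 min at room temperature, then 3 min at 37 °C. It was solubilised with 0.8% NP40 and benzonase (60 min, 4 °C) and ultracentrifuged, and the supernatant was TMT-labelled for LC-MS/MS. Intensities were vsn-normalised, and the value is the fold change against the NP40-processed vehicle per replicate, from three independent experiments.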

Target	NP40-soluble protein abundance (concentration: 1mM)	NP40-soluble protein abundance (concentration: 2mM)	NP40-soluble protein abundance (concentration: 4mM)	NP40-soluble protein abundance (concentration: 6mM)	NP40-soluble protein abundance (concentration: 8mM)	NP40-soluble protein abundance (concentration: 10mM)
SNTB2 (UniProt Q13425)	1 ± 0.031	1.05 ± 0.039	1.02 ± 0.043	1 ± 0.042	1.06 ± 0.072	1.03 ± 0.066
UniProt Q06136 and related entries	0.919 ± 0.1	0.994 ± 0.071	0.964 ± 0.092	0.957 ± 0.08	0.936 ± 0.086	0.96 ± 0.018
PWP1 (UniProt Q13610)	0.962 ± 0.015	0.993 ± 0.034	0.987 ± 0.027	0.97 ± 0.069	0.999 ± 0.056	1.04 ± 0.03
UniProt Q06124-2|Q06124	1 ± 0.026	1.01 ± 0.039	0.992 ± 0.04	1.01 ± 0.077	1 ± 0.053	0.981 ± 0.051
SORD (UniProt Q00796)	0.951 ± 0.03	0.962 ± 0.028	0.938 ± 0.018	0.936 ± 0.046	0.944 ± 0.037	0.958 ± 0.032
OTUD4 (UniProt Q01804)	1.02 ± 0.068	1.06 ± 0.04	1.07 ± 0.079	1.07 ± 0.053	1.05 ± 0.054	1.047 ± 0.0048
CHAF1B (UniProt Q13112)	1.01 ± 0.035	1 ± 0.038	1.01 ± 0.015	0.994 ± 0.045	0.994 ± 0.02	0.998 ± 0.034
UniProt Q01831 and related entries	0.993 ± 0.021	0.991 ± 0.032	0.999 ± 0.04	1.01 ± 0.024	1.05 ± 0.041	1.05 ± 0.023
NMI (UniProt Q13287)	0.961 ± 0.03	0.984 ± 0.019	0.949 ± 0.018	0.981 ± 0.021	0.952 ± 0.014	0.979 ± 0.043
UniProt Q0VG06 and related entries	0.936 ± 0.064	1 ± 0.039	1.05 ± 0.073	0.984 ± 0.062	1.07 ± 0.073	1.01 ± 0.012
UniProt Q03188	1.02 ± 0.053	1.04 ± 0.032	1.06 ± 0.043	1.08 ± 0.011	0.99 ± 0.022	1.01 ± 0.036
UniProt Q13330 and related entries	1.06 ± 0.038	1.03 ± 0.012	1.017 ± 0.0059	1.01 ± 0.04	1.07 ± 0.035	1.06 ± 0.041
PPIL2 (UniProt Q13356)	1.27 ± 0.014	1.277 ± 0.011	1.28 ± 0.023	1.3 ± 0.029	1.32 ± 0.049	1.34 ± 0.032
KEAP1 (UniProt Q14145)	0.971 ± 0.13	1.03 ± 0.18	1.19 ± 0.31	1.26 ± 0.54	1.04 ± 0.21	1.26 ± 0.48
NOTCH2 (UniProt Q04721)	1.1 ± 0.25	1.05 ± 0.013	1.02 ± 0.092	1.08 ± 0.022	0.985 ± 0.067	0.963 ± 0.14
